These are yes or no findings as the source states them, for the method shown. Binding seen in cells or lysates may run through a third protein. Some binding calls cover weakened binding; strength is not graded here. Sequences can lack the tags named with a protein.
Assays:
[1] = molecular target: T1, KCNE2 (potassium voltage-gated ion-channel subfamily E member 2), endogenous in differentiated H9C2 cardiomyocytes (rat (endogenous in H9C2)) (UniProt P63161); assay: condition: only normoxic conditions (cells without hypoxic stress); co-IP; reciprocal co-IP of endogenous proteins from lysates of differentiated H9C2 cardiomyocytes under normoxic conditions; anti-KCNE2 or anti-FLNC, protein G agarose, Western blot
T1 sequence: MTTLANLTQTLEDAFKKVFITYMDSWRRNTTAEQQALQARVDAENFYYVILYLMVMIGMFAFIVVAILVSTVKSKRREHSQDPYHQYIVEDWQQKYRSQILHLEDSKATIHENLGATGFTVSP

Chains of the proteins cited; added tags and fusions are not shown.
UniProt D3ZHA0: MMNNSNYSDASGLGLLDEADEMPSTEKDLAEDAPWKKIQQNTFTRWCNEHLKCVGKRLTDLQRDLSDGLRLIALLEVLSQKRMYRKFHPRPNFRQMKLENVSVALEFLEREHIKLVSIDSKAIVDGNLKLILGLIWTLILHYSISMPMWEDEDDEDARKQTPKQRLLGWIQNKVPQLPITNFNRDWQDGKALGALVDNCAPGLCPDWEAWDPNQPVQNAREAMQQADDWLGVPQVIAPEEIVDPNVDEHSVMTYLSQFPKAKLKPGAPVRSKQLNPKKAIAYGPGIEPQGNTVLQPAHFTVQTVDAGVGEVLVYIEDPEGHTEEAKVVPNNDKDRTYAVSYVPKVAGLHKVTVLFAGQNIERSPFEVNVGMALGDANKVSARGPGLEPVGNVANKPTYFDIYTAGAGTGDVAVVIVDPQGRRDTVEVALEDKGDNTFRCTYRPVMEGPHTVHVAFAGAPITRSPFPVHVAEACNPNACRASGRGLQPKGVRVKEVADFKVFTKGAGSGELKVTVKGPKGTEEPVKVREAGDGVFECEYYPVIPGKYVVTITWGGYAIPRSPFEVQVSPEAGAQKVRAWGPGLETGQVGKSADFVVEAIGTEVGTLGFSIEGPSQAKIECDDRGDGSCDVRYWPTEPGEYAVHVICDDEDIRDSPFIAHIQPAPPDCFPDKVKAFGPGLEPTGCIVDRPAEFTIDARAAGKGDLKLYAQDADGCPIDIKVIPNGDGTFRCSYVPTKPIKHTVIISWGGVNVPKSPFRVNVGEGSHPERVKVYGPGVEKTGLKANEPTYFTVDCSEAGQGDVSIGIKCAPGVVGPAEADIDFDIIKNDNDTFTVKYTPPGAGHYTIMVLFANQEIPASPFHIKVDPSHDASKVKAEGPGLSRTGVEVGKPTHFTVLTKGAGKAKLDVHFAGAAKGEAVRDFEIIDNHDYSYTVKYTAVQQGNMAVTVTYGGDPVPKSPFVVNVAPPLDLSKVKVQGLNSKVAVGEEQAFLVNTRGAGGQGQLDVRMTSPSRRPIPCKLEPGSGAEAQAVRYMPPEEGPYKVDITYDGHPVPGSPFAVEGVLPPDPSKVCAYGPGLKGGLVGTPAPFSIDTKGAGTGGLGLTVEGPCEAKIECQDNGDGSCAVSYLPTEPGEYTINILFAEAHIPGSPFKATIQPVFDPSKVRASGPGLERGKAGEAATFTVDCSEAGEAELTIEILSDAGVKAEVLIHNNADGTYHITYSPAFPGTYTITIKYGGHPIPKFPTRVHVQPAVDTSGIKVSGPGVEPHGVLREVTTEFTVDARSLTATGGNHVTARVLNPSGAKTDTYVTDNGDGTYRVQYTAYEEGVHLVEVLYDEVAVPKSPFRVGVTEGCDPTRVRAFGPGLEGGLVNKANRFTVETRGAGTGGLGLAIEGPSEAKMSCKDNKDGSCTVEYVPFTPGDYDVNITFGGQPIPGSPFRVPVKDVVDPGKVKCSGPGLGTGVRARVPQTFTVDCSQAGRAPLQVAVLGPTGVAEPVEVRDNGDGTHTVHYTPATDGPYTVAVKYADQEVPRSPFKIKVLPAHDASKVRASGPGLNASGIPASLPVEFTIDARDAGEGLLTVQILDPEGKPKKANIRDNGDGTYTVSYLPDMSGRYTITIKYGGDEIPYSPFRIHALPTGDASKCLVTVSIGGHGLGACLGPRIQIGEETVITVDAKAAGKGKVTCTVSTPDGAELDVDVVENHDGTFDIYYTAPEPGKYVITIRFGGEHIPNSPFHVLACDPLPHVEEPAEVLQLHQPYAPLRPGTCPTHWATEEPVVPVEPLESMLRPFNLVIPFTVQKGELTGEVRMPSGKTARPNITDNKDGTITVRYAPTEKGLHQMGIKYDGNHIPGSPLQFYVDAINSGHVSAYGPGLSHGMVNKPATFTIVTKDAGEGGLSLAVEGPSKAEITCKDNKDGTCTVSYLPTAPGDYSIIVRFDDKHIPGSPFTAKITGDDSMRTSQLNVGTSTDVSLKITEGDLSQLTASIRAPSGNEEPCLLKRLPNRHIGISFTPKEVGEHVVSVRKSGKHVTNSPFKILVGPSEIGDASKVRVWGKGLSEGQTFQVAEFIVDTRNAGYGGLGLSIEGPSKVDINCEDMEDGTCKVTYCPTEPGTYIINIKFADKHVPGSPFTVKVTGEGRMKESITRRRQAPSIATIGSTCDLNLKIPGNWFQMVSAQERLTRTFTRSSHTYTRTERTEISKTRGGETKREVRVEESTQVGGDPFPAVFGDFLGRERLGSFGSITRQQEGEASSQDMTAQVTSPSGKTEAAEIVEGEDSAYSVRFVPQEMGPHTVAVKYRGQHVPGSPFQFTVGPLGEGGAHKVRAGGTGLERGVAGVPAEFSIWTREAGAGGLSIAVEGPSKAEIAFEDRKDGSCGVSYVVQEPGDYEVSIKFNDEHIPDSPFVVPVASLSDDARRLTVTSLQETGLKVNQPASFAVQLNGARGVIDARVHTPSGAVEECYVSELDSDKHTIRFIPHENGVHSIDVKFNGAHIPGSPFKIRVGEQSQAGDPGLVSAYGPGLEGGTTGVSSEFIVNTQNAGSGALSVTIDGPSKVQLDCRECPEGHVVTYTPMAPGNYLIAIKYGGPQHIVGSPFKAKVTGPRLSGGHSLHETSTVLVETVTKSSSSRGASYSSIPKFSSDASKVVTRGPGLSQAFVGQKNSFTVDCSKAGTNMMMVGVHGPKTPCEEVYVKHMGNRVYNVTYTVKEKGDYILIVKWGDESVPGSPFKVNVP

[2] = molecular target: T1, KCNE2 (potassium voltage-gated ion-channel subfamily E member 2), endogenous in differentiated H9C2 cardiomyocytes (rat (endogenous in H9C2)); assay: co-IP; reciprocal co-IP of endogenous proteins from lysates of differentiated H9C2 cardiomyocytes after hypoxia (Esumi buffer pH 6.2, 1% O2, 37°C, 2 h); anti-KCNE2 or anti-FLNC, protein G agarose, Western blot

“Filamin C (FLNC), endogenous in differentiated H9C2 cardiomyocytes (from UniProt D3ZHA0 1-2726)” was tested, and the binding [1] was “no binding” and the binding [2] was “binds”.

Source: article PMC4816932
